Source: PubChem BioAssay AID1224827 (NIAID, 2016)

Purpose: 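Identify regulators of the macrophage TNF-alpha response to bacterial LPS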 (follow-up of hits)
Cell system: RAW264.7 G9 mouse macrophage reporter clone
Reagents: single siRNA against mouse genes, 100 nM siRNA
Duration: siRNA for 2 days, then LPS about 16 h
Treatment: bacterial lipopolysaccharide (LPS), 10 ng/ml, cells fixed after overnight (about 16 h) stimulation
Measured: 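Imaged nuclear TNF reporter intensity, background removed, scaled per plate and to non-targeting control wells, as z-scores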
Reading the numbers: TNF reporter z-score, mean and TNF reporter z-score: higher = stronger Tnf promoter reporter signal; gene median z, three same-vendor siRNAs: higher = stronger Tnf reporter signal for the gene
Active means: 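Active siRNA: replicate-mean z-score of 2 or more, or -2 or less; no calls for control wells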
This is one part, drawn at random, of about 3,800 reagents. About 2,200 of all reagents (57%) count as active. 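Active means a strong reporter change in either direction; calls are per siRNA, not per gene; qiagen siRNAs gave weaker effects.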 The numbers tell different reagents against one gene apart.

| gene | reagent | TNF reporter z-score, mean | gene median z, three same-vendor siRNAs | TNF reporter z-score, repeat 1 | TNF reporter z-score, repeat 2 | activity call |
| --- | --- | --- | --- | --- | --- | --- |
| Krt8 (keratin 8) | 1 | -1.04 | -4.17 | -1.36 | -0.711 | inactive |
| Krt8 (keratin 8) | 2 | -4.55 | -4.17 | -3.97 | -5.13 | active |
| Krt8 (keratin 8) | 3 | -5.71 | -4.17 | -4.36 | -7.07 | active |
| Krt8 (keratin 8) | 4 | 4.17 | 1.55 | 7.61 | 0.732 | active |
| Krt8 (keratin 8) | 5 | 2.91 | 1.55 | 5.08 | 0.738 | active |
| Krt8 (keratin 8) | 6 | 1.46 | 1.55 | 2.36 | 0.552 | inactive |
| Scamp5 | 1 | 0.438 | -1.14 | 2.11 | -1.24 | inactive |
| Scamp5 | 2 | -0.654 | -1.14 | -1.03 | -0.272 | inactive |
| Scamp5 | 3 | -5.09 | -1.14 | -5.03 | -5.15 | active |
| Scamp5 | 4 | 0.709 | -0.36 | 2.62 | -1.2 | inactive |
| Scamp5 | 5 | -0.171 | -0.36 | 0.773 | -1.11 | inactive |
| Scamp5 | 6 | -0.708 | -0.36 | 0.394 | -1.81 | inactive |
| Gzmf (granzyme F) | 1 | 5.65 | -4.12 | 4.31 | 7 | active |
| Gzmf (granzyme F) | 2 | -4.12 | -4.12 | -3.54 | -4.69 | active |
| Gzmf (granzyme F) | 3 | -5.46 | -4.12 | -4.7 | -6.21 | active |
| Gzmf (granzyme F) | 4 | -0.536 | -2.2 | -0.0679 | -1 | inactive |
| Gzmf (granzyme F) | 5 | -2.48 | -2.2 | -3.24 | -1.71 | active |
| Gzmf (granzyme F) | 6 | -2.88 | -2.2 | -3.06 | -2.69 | active |
| Mcoln2 (mucolipin 2) | 1 | -2.06 | -3.49 | -3.41 | -0.712 | active |
| Mcoln2 (mucolipin 2) | 2 | -3.22 | -3.49 | -3.56 | -2.89 | active |
| Mcoln2 (mucolipin 2) | 3 | -4.58 | -3.49 | -4.35 | -4.82 | active |
| Mcoln2 (mucolipin 2) | 4 | 0.996 | -0.98 | 2.88 | -0.893 | inactive |
| Mcoln2 (mucolipin 2) | 5 | -0.0823 | -0.98 | 1.5 | -1.67 | inactive |
| Mcoln2 (mucolipin 2) | 6 | -1.35 | -0.98 | -1.07 | -1.64 | inactive |
| Eloc (elongin C) | 1 | -1.82 | -3.51 | -2.27 | -1.37 | inactive |
| Eloc (elongin C) | 2 | -3.51 | -3.51 | -3.48 | -3.54 | active |
| Eloc (elongin C) | 3 | -4.07 | -3.51 | -3.69 | -4.44 | active |
| Eloc (elongin C) | 4 | -0.0878 | -0.999 | 1.62 | -1.8 | inactive |
| Eloc (elongin C) | 5 | -0.521 | -0.999 | 0.197 | -1.24 | inactive |
| Eloc (elongin C) | 6 | -1.1 | -0.999 | -0.759 | -1.45 | inactive |
| Tnfrsf13c (tumor necrosis factor receptor superfamily, member 13c) | 1 | 5.08 | 3.06 | 3.93 | 6.23 | active |
| Tnfrsf13c (tumor necrosis factor receptor superfamily, member 13c) | 2 | 3.06 | 3.06 | 2.45 | 3.68 | active |
| Tnfrsf13c (tumor necrosis factor receptor superfamily, member 13c) | 3 | -1.98 | 3.06 | -2.95 | -1 | inactive |
| Tnfrsf13c (tumor necrosis factor receptor superfamily, member 13c) | 4 | 1.1 | -0.375 | 2.77 | -0.564 | inactive |
| Tnfrsf13c (tumor necrosis factor receptor superfamily, member 13c) | 5 | -0.587 | -0.375 | -0.186 | -0.987 | inactive |
| Tnfrsf13c (tumor necrosis factor receptor superfamily, member 13c) | 6 | -0.564 | -0.375 | 0.03 | -1.16 | inactive |

Individual results from above:
Value for Eloc (elongin C) #6 under “TNF reporter z-score, repeat 1”: -0.759
Entry for Mcoln2 (mucolipin 2) #3 under “TNF reporter z-score, repeat 1”: -4.35
Entry of Gzmf (granzyme F) #3 in “TNF reporter z-score, repeat 2”: -6.21
Entry for Tnfrsf13c (tumor necrosis factor receptor superfamily, member 13c) #1 under “TNF reporter z-score, mean”: 5.08
For “TNF reporter z-score, repeat 2”, Eloc (elongin C) #5 has -1.24
Eloc (elongin C) #4, TNF reporter z-score, repeat 2 → -1.8

Additional entries follow:
| gene | reagent | TNF reporter z-score, mean | gene median z, three same-vendor siRNAs | TNF reporter z-score, repeat 1 | TNF reporter z-score, repeat 2 | activity call |
| --- | --- | --- | --- | --- | --- | --- |
| Gpr83 (G protein-coupled receptor 83) | 1 | -3.51 | -4.42 | -3.05 | -3.97 | active |
| Gpr83 (G protein-coupled receptor 83) | 2 | -4.45 | -4.42 | -4.65 | -4.25 | active |
| Gpr83 (G protein-coupled receptor 83) | 3 | -4.6 | -4.42 | -4.61 | -4.6 | active |
| Gpr83 (G protein-coupled receptor 83) | 4 | 3.18 | -0.0854 | 4.42 | 1.94 | active |
| Gpr83 (G protein-coupled receptor 83) | 5 | -0.0854 | -0.0854 | 0.25 | -0.421 | inactive |
| Gpr83 (G protein-coupled receptor 83) | 6 | -1.14 | -0.0854 | -1.45 | -0.827 | inactive |
| Rnf126 (ring finger protein 126) | 1 | -0.378 | -2.95 | -0.594 | -0.162 | inactive |
| Rnf126 (ring finger protein 126) | 2 | -3.04 | -2.95 | -1.89 | -4.2 | active |
| Rnf126 (ring finger protein 126) | 3 | -4.57 | -2.95 | -4.02 | -5.12 | active |
| Rnf126 (ring finger protein 126) | 4 | 2.37 | -0.658 | 4.34 | 0.408 | active |
| Rnf126 (ring finger protein 126) | 5 | -0.658 | -0.658 | -0.827 | -0.49 | inactive |
| Rnf126 (ring finger protein 126) | 6 | -2.42 | -0.658 | -2.44 | -2.41 | active |
| Angel2 (angel homolog 2) | 1 | -0.198 | -4.47 | -1.19 | 0.796 | inactive |
| Angel2 (angel homolog 2) | 2 | -4.7 | -4.47 | -4.87 | -4.53 | active |
| Angel2 (angel homolog 2) | 3 | -4.73 | -4.47 | -5.06 | -4.41 | active |
| Angel2 (angel homolog 2) | 4 | 2.5 | -0.302 | 4.86 | 0.144 | active |
| Angel2 (angel homolog 2) | 5 | 0.55 | -0.302 | 1.85 | -0.748 | inactive |
| Angel2 (angel homolog 2) | 6 | -3.13 | -0.302 | -2.89 | -3.37 | active |
| Ap1g1 (adaptor protein complex AP-1, gamma 1 subunit) | 1 | -0.962 | -2.5 | -0.986 | -0.938 | inactive |
| Ap1g1 (adaptor protein complex AP-1, gamma 1 subunit) | 2 | -2.5 | -2.5 | -3.48 | -1.52 | active |
| Ap1g1 (adaptor protein complex AP-1, gamma 1 subunit) | 3 | -4.61 | -2.5 | -5.65 | -3.58 | active |
| Ap1g1 (adaptor protein complex AP-1, gamma 1 subunit) | 4 | 3.58 | 1.16 | 6.12 | 1.03 | active |
| Ap1g1 (adaptor protein complex AP-1, gamma 1 subunit) | 5 | 1.44 | 1.16 | 4.4 | -1.52 | inactive |
| Ap1g1 (adaptor protein complex AP-1, gamma 1 subunit) | 6 | -0.741 | 1.16 | 1.29 | -2.77 | inactive |
| Atf3 (activating transcription factor 3) | 1 | 2.56 | -2.12 | 2.21 | 2.91 | active |
| Atf3 (activating transcription factor 3) | 2 | -2.12 | -2.12 | -1.91 | -2.33 | active |
| Atf3 (activating transcription factor 3) | 3 | -2.7 | -2.12 | -2.39 | -3.02 | active |
| Atf3 (activating transcription factor 3) | 4 | 3.33 | 0.183 | 6.82 | -0.169 | active |
| Atf3 (activating transcription factor 3) | 5 | 0.136 | 0.183 | 0.535 | -0.263 | inactive |
| Atf3 (activating transcription factor 3) | 6 | 0.65 | 0.183 | 2.79 | -1.49 | inactive |
| Or2y1b (olfactory receptor family 2 subfamily Y member 1B) | 1 | -0.0491 | -2.9 | -0.668 | 0.569 | inactive |
| Or2y1b (olfactory receptor family 2 subfamily Y member 1B) | 2 | -2.9 | -2.9 | -3 | -2.81 | active |
| Or2y1b (olfactory receptor family 2 subfamily Y member 1B) | 3 | -4.47 | -2.9 | -4.34 | -4.61 | active |
| Or2y1b (olfactory receptor family 2 subfamily Y member 1B) | 4 | 3.21 | 1 | 5.3 | 1.11 | active |
| Or2y1b (olfactory receptor family 2 subfamily Y member 1B) | 5 | 1.19 | 1 | 3.47 | -1.1 | inactive |
| Or2y1b (olfactory receptor family 2 subfamily Y member 1B) | 6 | 0.335 | 1 | 0.895 | -0.225 | inactive |
| Or1e32 (olfactory receptor family 1 subfamily E member 32) | 1 | -0.459 | -3.32 | -1.95 | 1.04 | inactive |
| Or1e32 (olfactory receptor family 1 subfamily E member 32) | 2 | -3.69 | -3.32 | -2.84 | -4.55 | active |
| Or1e32 (olfactory receptor family 1 subfamily E member 32) | 3 | -4.19 | -3.32 | -4.56 | -3.81 | active |
| Or1e32 (olfactory receptor family 1 subfamily E member 32) | 4 | 0.106 | -1.72 | 1.86 | -1.65 | inactive |
| Or1e32 (olfactory receptor family 1 subfamily E member 32) | 5 | -1.39 | -1.72 | -1.79 | -0.984 | inactive |
| Or1e32 (olfactory receptor family 1 subfamily E member 32) | 6 | -4.61 | -1.72 | -5.7 | -3.52 | active |
